Measurements reported in PubChem BioAssay AID686943 (Drosophila RNAi Screening Center, 2013)
Purpose: 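Knockdowns that increase or decrease active ERK after insulin receptor stimulation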 (primary screen). System: Drosophila S2R+ haemocyte-like cells expressing YFP-tagged ERK (Rolled). Knock-down reagent: long dsRNA against Drosophila genes. Treatment: insulin stimulation versus unstimulated cells; dose and duration not given. Detection: 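Antibody staining for doubly phosphorylated ERK divided by ERK-YFP signal, as plate z-scores, in insulin-treated and untreated cells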. Scale: replicate 1, z-score of dpERK with insulin and replicate 2, z-score of dpERK with insulin: higher = more active ERK per ERK-YFP after insulin.
The screen tested about 23,000 reagents; this is a random part of those with a known target gene and a result. 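Extra replicates exist only for a retested subset of genes; insulin dose and duration not given; both raised and lowered dpERK matter.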 A plus sign joins genes that one reagent is predicted to hit. Further read-outs or replicates are left out here. Not stated in the record: the amount of reagent, the time to read-out.

no.	target	DRSC id	replicate 1, z-score of dpERK with insulin	replicate 2, z-score of dpERK with insulin
1	CG9588	DRSC16504	-0.1	0.53
2	CG17154	DRSC10253	-0.25	-0.95
3	Hsp27	DRSC11190	0.57	0.42
4	Hexo1	DRSC08663	0.47	0.12
5	CycG	DRSC14324	-1.66	-1.39
6	meso18E	DRSC20351	-1.19	-1.86
7	CG7080	DRSC16193	-0.39	-0.18
8	CG5290	DRSC10501	-0.14	-0.32
9	nom	DRSC16389	0.32	-0.22
10	arg	DRSC18737	0	-0.38
11	fax	DRSC11345	-0.42	0.17
12	Kr-h2	DRSC03356	0.15	-0.08
13	NAAT1	DRSC18300	0.98	0.95
14	Cyp4ac1	DRSC03302	0.8	-0.11
15	CG14125	DRSC10129	-0.18	0.13
16	CG4455	DRSC01983	-0.6	-0.64
17	CG4455	DRSC21684	0.17	0.12
18	Rpn9	DRSC16840	-3.54	-1.53
19	CG31637	DRSC02270	-0.01	0.86
20	CG31637	DRSC03263	1.47	1
21	egl	DRSC04682	0.93	-0.22
22	cd	DRSC16157	-0.61	0
23	CG18675	DRSC08536	-0.22	0.17
24	RpS27	DRSC14244	1.91	-0.15
25	CG4751	DRSC02776	0.14	0.57
26	CG14104	DRSC10106	0.5	-0.19
27	Urm1	DRSC22941	-0.05	0.48
28	Z600	DRSC11317	-0.1	1.06
29	CG5399	DRSC15791	-1.92	-1.44
30	CG34268	DRSC07874	1	0.48
31	alpha-Est7	DRSC12619	0.21	0.78
32	Nepl7	DRSC02495	0.2	0.03
33	hid	DRSC11316	-0.13	-0.29
34	CG13137	DRSC02234	0.05	0.22
35	mthl4	DRSC06998	0.2	-0.11
36	sr	DRSC13284	0.69	0.5
37	sr	DRSC17067	-1.67	-4.69
38	Lkb1	DRSC16481	-0.02	0.05

The list goes on (4 carried over from the part before).
no.	target	DRSC id	replicate 1, z-score of dpERK with insulin	replicate 2, z-score of dpERK with insulin
35	mthl4	DRSC06998	0.2	-0.11
36	sr	DRSC13284	0.69	0.5
37	sr	DRSC17067	-1.67	-4.69
38	Lkb1	DRSC16481	-0.02	0.05
39	CG7950 + Rpp14a	DRSC16353	2.06	-1.04
40	Zasp66	DRSC08932	-0.54	0.03
41	Zasp66	DRSC10631	0.1	0.11
42	Zasp66	DRSC10632	0.84	0.36
43	Ucp4A	DRSC19996	1.01	0.12
44	topi	DRSC16431	-0.29	-0.54
45	CG6041	DRSC18396	-0.19	-0.64
46	UGP	DRSC10411	0.48	0.14
47	Pect	DRSC02867	-0.18	1.66
48	Pect	DRSC02868	0.46	0.82
49	CG15870	DRSC06588	0.49	0.96
50	CG31468	DRSC13637	0.57	2.17
51	APP-BP1	DRSC10920	0.19	0.32
52	eEF1delta	DRSC02790	-0.6	-0.61
53	Pex1	DRSC11358	0.39	-0.06
54	CG6583	DRSC02972	-0.34	0.74
55	CG10019	DRSC00279	-2.08	-3.57
56	Nup93-1	DRSC19344	0.32	1.47
57	CG16868	DRSC06633	0.59	0.14
